Article PMC9171358
No constants are given. Whether binding was seen depends on the method and setting. Binding seen in cells or lysates may run through a third protein. Some binding calls cover weakened binding; strength is not graded here. For some assays here: Sequences can lack the tags named with a protein.

T1: Myc-MST2 (UniProt Q13188)
T1 sequence: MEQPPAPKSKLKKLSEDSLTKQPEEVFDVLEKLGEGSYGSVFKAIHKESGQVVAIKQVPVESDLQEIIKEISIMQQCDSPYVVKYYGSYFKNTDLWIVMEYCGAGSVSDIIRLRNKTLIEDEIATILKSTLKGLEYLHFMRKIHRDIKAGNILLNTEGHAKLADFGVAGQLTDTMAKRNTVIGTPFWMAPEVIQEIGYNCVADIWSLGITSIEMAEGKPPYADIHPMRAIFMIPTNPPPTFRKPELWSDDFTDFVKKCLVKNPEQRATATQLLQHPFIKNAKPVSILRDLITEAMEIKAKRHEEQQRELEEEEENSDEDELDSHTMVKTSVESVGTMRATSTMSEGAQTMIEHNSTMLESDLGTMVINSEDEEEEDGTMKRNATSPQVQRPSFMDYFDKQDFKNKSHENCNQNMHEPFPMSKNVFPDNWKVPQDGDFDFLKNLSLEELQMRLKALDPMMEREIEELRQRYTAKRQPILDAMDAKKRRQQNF

T2: endogenous MST2 (human (endogenous in HEK293T)) (UniProt Q13188)
T2 sequence: T1 sequence

B1: Flag-BRAP (BRCA1-associated protein) (protein, UniProt Q7Z569 1-592)
chain: MSVSLVVIRLELAEHSPVPAGFGFSAAAGEMSDEEIKKTTLASAVACLEGKSPGEKVAIIHQHLGRREMTDVIIETMKSNPDELKTTVEERKSSEASPTAQRSKDHSKECINAAPDSPSKQLPDQISFFSGNPSVEIVHGIMHLYKTNKMTSLKEDVRRSAMLCILTVPAAMTSHDLMKFVAPFNEVIEQMKIIRDSTPNQYMVLIKFRAQADADSFYMTCNGRQFNSIEDDVCQLVYVERAEVLKSEDGASLPVMDLTELPKCTVCLERMDESVNGILTTLCNHSFHSQCLQRWDDTTCPVCRYCQTPEPVEENKCFECGVQENLWICLICGHIGCGRYVSRHAYKHFEETQHTYAMQLTNHRVWDYAGDNYVHRLVASKTDGKIVQYECEGDTCQEEKIDALQLEYSYLLTSQLESQRIYWENKIVRIEKDTAEEINNMKTKFKETIEKCDNLEHKLNDLLKEKQSVERKCTQLNTKVAKLTNELKEEQEMNKCLRANQVLLQNKLKEEERVLKETCDQKDLQITEIQEQLRDVMFYLETQQKINHLPAETRQEIQEGQINIAMASASSPASSGGSGKLPSRKGRSKRGK
B2: endogenous BRAP (protein, UniProt Q7Z569 1-592)
chain: B1 chain

Key:
[1] = biological target: T1, Myc-MST2; assay: co-IP; anti-Myc immunoprecipitation of lysates of HEK293T cells transfected with Myc-MST2 and Flag-BRAP (or GFP); 20 mM Tris, 137 mM NaCl, 1% Triton X-100, pH 7.4; Protein A/G Sepharose beads, 4 °C
[2] = biological target: T2, endogenous MST2 (human (endogenous in HEK293T)); assay: co-IP; anti-MST2 antibody (or IgG control) immunoprecipitation of untransfected HEK293T cell lysates, endogenous proteins; 20 mM Tris, 137 mM NaCl, 1% Triton X-100, pH 7.4; Protein A/G Sepharose beads, 4 °C

binding [1]	binding [2]	Binder
binds		B1
	binds	B2
